In patent US20250243243A1, “DISRUPTION OF SONIC HEDGEHOG-SURF4 INTERACTION FOR CANCER TREATMENT” (The Hong Kong University of Science and Technology, priority 2022, published 2025):
Results are given in words; binding and its absence hold for the method and conditions named. Some entries that bind do so weakly or less than the wild type. Tags and fused reporters may be left off the sequences shown.

How the values were obtained:
RRFR peptides (…) [1] = target: T1, RRFR peptides (…); test: peptide pull-down, peptides on beads, anti-GST blot
T1 sequence (peptide, C-terminal cysteine added for coupling to thiopyridone-Sepharose 6B beads): VRRFRYPERPC

RRFR peptides (…) [2] = target: T1, RRFR peptides (…); test: quantification of the peptide pull-down (n=3), normalised to CW peptides
RRFR peptides (…) [3] = target: T1, RRFR peptides (…); test: pull-down on peptide-coupled beads, purified GST-SURF4(49-60) as prey, anti-GST immunoblot

Measured: binding

SEQRDYIDTTWN (peptide, not shown: a dimerising Fc or GST) [GST-SURF4^49-60]
binds: all assays above
